Data on one substance can be found in article PMC12485051.

Sequences of proteins named here, by UniProt entry; tags and fusion partners are left off. Residues count along the entry.
UniProt P29460, residues 23-328: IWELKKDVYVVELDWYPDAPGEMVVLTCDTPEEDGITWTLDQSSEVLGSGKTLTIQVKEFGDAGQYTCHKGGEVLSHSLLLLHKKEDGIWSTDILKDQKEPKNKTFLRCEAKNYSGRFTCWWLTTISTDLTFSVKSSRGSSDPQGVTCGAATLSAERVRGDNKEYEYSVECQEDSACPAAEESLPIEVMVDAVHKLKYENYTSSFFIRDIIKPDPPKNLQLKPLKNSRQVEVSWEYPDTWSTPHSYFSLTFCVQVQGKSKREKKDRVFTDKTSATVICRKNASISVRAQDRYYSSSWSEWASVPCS

Results are given in words; binding and its absence hold for the method and conditions named. Binding seen in cells or lysates may run through a third protein. These calls come from enrichment with a bait or labelling near it, and not all partners need be listed. For some assays here: A no says only that the protein was not detected with the bait. For some assays here: Tags and fused reporters may be left off the sequences shown.

The target in experiment [1] is T1, BioID2-CLCF1_(ProtC) fusion protein (human) (UniProt Q9UBD9).
T1 sequence: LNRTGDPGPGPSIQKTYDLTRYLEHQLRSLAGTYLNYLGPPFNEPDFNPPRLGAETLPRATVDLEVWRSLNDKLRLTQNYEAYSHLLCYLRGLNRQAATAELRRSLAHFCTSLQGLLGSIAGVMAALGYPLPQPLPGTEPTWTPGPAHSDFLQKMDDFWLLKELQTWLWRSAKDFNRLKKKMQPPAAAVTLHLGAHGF
Nature of the experiment: proximity labelling; BioID2 proximity-dependent biotinylation in co-transfected HEK-293T cells, biotin 50 µM for the last 18 h; p40_(FLAG) immunoprecipitated from the supernatant with anti-FLAG affinity gel and probed with streptavidin.

Experiment [2] addresses A. aeolicus BioID2 biotin ligase mutant tagged with the protein C epitope (BioID2_(ProtC)) (A. aeolicus) (UniProt O66837). Described as above.

As to “human p40 tagged with the FLAG epitope (p40_(FLAG)) (from UniProt P29460 23-328)”, the binding result in experiment [1] was “binds”; in experiment [2], “no binding”.
